Test results as given in patent publication US9850282B2 (priority 2013, dated 2017).

Test: peptide synthesis
Conditions: late stage modification step

Row | Sequence | final HPLC purity (D-arginine salt (1:2)) [%] | final HPLC purity (L-arginine salt (1:1)) [%] | final HPLC purity (L-lysine salt (1:3)) [%] | final HPLC purity (L-ornithine salt (1:2)) [%] | final HPLC purity (L-arginine salt (1:2)) [%]
1 | GEPPPGKPADDAGLV | 99.48 | 98.57 | 99.47 | 99.30 | –
2 | GEPPPGKPADDAGLV [Arg-BPC] | – | – | – | – | 99.54

No end group written: not given here.
